Source: patent US11872219B2 (priority 2018, dated 2024)

Test system: rats (monosodium-iodoacetate model of osteoarthritis)
Assay: monosodium-iodoacetate model of osteoarthritis: lameness (dynamic weight bearing)
Details: intrathecal 15 μg, Days 2-4 and Days 22-24

SMILES: CN1CC[C@]23c4c5ccc(O)c4O[C@H]2[C@@H](O)C=C[C@H]3[C@H]1C5.O=S(=O)(O)O [morphine sulfate, reference compound]
- magnitude of efficacy on lameness, early versus late phase: comparable in the early and late phases
